Chains of the proteins cited; added tags and fusions are not shown. Lines headed by an entry give the natural chain unless they say otherwise; changes in a name come on top.
UniProt A0A0H3CDG4: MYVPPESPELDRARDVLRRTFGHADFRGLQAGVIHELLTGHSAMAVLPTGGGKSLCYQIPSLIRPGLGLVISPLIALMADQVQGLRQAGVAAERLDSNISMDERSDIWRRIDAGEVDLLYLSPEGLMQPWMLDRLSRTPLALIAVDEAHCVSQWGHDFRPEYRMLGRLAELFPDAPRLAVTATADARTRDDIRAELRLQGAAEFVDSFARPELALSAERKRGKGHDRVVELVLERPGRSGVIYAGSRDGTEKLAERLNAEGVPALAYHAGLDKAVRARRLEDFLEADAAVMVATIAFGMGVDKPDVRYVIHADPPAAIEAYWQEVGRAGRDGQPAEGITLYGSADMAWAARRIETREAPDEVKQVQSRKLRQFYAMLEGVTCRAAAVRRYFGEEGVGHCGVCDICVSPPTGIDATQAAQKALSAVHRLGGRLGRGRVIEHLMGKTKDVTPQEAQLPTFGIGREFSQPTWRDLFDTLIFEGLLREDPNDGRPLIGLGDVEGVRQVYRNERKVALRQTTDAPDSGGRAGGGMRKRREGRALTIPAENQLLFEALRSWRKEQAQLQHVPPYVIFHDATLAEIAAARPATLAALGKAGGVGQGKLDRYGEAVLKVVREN
UniProt A0A0H3C832: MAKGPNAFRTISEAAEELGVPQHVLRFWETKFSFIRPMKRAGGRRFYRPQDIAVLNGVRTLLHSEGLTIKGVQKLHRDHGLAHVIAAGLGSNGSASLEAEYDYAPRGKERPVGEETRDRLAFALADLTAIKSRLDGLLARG
UniProt A0A0H3CD23: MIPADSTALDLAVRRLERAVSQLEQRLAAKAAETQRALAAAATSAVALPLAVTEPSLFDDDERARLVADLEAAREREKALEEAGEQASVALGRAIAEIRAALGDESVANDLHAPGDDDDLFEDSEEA
UniProt A0A0H3CCN8: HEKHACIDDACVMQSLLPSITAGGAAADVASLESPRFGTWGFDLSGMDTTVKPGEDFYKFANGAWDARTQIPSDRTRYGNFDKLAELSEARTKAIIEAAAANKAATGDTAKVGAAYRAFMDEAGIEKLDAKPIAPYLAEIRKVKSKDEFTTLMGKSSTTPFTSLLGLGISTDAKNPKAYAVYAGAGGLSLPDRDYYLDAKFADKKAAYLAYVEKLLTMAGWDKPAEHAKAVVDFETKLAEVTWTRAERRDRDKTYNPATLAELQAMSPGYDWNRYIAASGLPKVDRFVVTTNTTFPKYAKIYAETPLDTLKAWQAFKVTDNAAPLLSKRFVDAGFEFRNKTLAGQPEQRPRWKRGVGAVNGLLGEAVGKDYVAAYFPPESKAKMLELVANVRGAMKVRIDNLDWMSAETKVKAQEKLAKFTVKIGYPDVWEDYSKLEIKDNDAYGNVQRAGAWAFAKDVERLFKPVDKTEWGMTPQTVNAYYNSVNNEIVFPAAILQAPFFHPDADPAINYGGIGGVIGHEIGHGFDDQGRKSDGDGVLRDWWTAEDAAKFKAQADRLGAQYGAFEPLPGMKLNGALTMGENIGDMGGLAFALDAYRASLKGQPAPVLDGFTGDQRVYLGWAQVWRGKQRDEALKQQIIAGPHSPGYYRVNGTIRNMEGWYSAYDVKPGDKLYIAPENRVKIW
UniProt A0A0H3C997: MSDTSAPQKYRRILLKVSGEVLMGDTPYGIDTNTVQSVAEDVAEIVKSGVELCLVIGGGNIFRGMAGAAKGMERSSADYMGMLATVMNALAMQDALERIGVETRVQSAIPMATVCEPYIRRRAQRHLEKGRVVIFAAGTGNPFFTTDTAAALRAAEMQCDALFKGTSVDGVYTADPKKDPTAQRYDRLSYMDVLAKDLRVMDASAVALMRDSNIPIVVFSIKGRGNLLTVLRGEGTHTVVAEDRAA

According to article PMC7188993:

The substances below were run against ZapA with a C-terminal 3xFLAG tag (Caulobacter crescentus) (assay: affinity purification with mass spectrometry; CoIP-MS: FLAG-tagged bait recovered from cleared C. crescentus lysate on anti-FLAG M2 magnetic beads (10 mM HEPES KOH pH 7.5, 75 mM NaCl, 0.1% IGEPAL, 1 h, 4°C), washed three times in 0.1 M ammonium bicarbonate, LC-MS/MS; untagged NA1000 as negative control; three biological replicates).

binding, binds:
RecQ DNA helicase (CCNA_03578) (from UniProt A0A0H3CDG4) (enzyme)
ZapT (from UniProt A0A0H3C832)
ZauP (from UniProt A0A0H3CD23)
putative zinc metalloprotease (CCNA_03619) (from UniProt A0A0H3CCN8) (enzyme)
uridylate kinase (CCNA_01998) (from UniProt A0A0H3C997) (enzyme)

What follows are substances tested against ZauP with an N-terminal 3xFLAG tag (Caulobacter crescentus) in the same assay as above.

binding, binds:
ZapT (from UniProt A0A0H3C832)

Results are given in words; binding and its absence hold for the method and conditions named. Binding seen in cells or lysates may run through a third protein. These calls come from enrichment with a bait or labelling near it, and not all partners need be listed.
